Test results taken from patent US20260167692A1, “POLYPEPTIDES AND RELATED SUBSTANCES AGAINST HAIR LOSS AND DERMATITIS, AND USES THEREOF” (SHENZHEN INSTITUTES OF ADVANCED TECHNOLOGY, priority 2023, published 2026).
At least one peptide structure holds a part that was inferred or is arguable (an end, a ring closure or a residue). For some of these results: For at least one compound, name, drawing or mass did not settle the structure. Where a SMILES comes first, the peptide text is derived from it.

Columns and labels:
[1] = tested on: male C57BL/6 mice; assay: Psychological stress-induced hair loss mouse model (Dexamethasone / Prednisone); assay type: in vivo; details: 23 days
[2] = tested on: male C57BL/6 mice; assay: Androgenetic (seborrheic) hair loss mouse model (DHT); assay type: in vivo
Experimental: 7-week-old male C57BL/6 mice were treated with application of DHT (a modeling and experimental cycle of 28 days).
Hair at a telogen phase on 2×2 cm areas of dorsa was removed, and the areas were depilated using a hair removal cream. A DHT solution (0.2%, w/v) was prepared in an ethanol solution (50%, v/v). Mice received topical application of the DHT solution (0.1 mL/cm^2) to the depilated areas, once a day, for 28 consecutive days. Mice in the other group received the polypeptide via oral gavage at a concentration of 0.5 mg/kg/day while applied with the DHT daily.

[3] = topical Dexamethasone 100 nM, 0.1 mL once a day

SMILES	skin expression level of estrogen synthesis-related enzyme gene Cyp11 [1, 3]	skin expression level of glucocorticoid receptor gene GR [1, 3]	skin expression level of testosterone synthesis-related enzyme gene 17betaHSD3 [1, 3]	skin expression levels of cortisol synthesis-related enzyme genes 3betaHSD, Cyp21, and Cyp11B1 [1, 3]	number of hair follicles in cervicodorsal skin (HE staining) ([1]; polypeptide oral gavage 0.5 mg/kg/day with daily topical Dexamethasone, FIG. 10)	effects of Dexamethasone on skin expression levels of 3betaHSD, Cyp21, Cyp11B1, GR, 17betaHSD3 and estrogen synthesis-related enzyme genes ([1]; polypeptide oral gavage 0.5 mg/kg/day with daily topical Dexamethasone, FIG. 10C)	levels of the inflammatory factors (TGF-β, IL-6) in skin ([2]; polypeptide oral gavage 0.5 mg/kg/day with daily topical DHT, 28 days)	number of hair follicles in cervicodorsal skin (HE staining) ([2]; polypeptide oral gavage 0.5 mg/kg/day with daily topical DHT, 28 days, FIG. 12)	DHT-induced changes of skin expression levels of β-catenin, TGF-β, DKK1, IL-6, and AR genes ([2]; polypeptide oral gavage 0.5 mg/kg/day with daily topical DHT, 28 days, FIG. 12C)	DHT-induced expression of sebaceous gland-related genes (lipases, adipocyte differentiation, lipoproteins; LPL, PPARγ, FABP3/4) in skin ([2]; polypeptide oral gavage with daily topical DHT, real-time PCR, FIG. 14)
C[C@@H]1C[C@H]2[C@@H]3CCC4=CC(=O)C=C[C@]4(C)[C@@]3(F)[C@@H](O)C[C@]2(C)[C@@]1(O)C(=O)CO [Dexamethasone]	decreases	increases significantly	increases	increase						
CC(C)C[C@H](NC(=O)[C@@H](N)Cc1ccc(O)cc1)C(=O)NCC(=O)N[C@@H](C)C(=O)N[C@@H](CO)C(=O)N[C@H](C(=O)N1CCC[C@H]1C(=O)N[C@@H](CO)C(=O)N1CCC[C@H]1C(=O)N[C@@H](CC(=O)O)C(=O)N1CCC[C@H]1C(=O)N[C@@H](CC(C)C)C(=O)N[C@@H](CCC(=O)O)C(=O)N1CCC[C@H]1C(=O)N[C@H](C(=O)O)[C@@H](C)O)C(C)C [mO15, YLGASVPSPDPLEPT] (H-YLGASVPSPDPLEPT-OH; N-terminus and C-terminus assumed)					increases significantly	alleviated	significantly reducing	increases significantly	alleviated	alleviated
